Data published in the supplement of paper PMC10849652.
The other results are listed elsewhere or left out.

The chains behind the UniProt entries cited, without tags or fusion partners. Where a name states a change or a piece, a line headed by the entry shows the natural chain unless it says otherwise.
UniProt P02750: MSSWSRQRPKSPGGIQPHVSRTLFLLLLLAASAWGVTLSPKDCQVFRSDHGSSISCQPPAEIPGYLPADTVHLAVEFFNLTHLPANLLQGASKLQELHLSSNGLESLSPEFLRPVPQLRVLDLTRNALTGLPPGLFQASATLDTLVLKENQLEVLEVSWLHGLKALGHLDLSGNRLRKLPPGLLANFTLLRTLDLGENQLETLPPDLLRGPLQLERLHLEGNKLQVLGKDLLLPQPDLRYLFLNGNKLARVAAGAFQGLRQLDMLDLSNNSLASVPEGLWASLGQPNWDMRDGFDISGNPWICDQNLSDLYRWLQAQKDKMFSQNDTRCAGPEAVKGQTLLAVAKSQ
UniProt Q52LA3: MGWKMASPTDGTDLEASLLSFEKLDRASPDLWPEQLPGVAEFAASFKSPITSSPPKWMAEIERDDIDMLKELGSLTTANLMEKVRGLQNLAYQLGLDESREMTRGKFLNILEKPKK
UniProt Q99732: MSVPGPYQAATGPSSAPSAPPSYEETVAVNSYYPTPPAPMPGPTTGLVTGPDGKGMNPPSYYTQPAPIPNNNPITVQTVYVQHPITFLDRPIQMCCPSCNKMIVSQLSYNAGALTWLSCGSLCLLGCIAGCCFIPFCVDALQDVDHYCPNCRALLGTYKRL
UniProt Q7L5N7: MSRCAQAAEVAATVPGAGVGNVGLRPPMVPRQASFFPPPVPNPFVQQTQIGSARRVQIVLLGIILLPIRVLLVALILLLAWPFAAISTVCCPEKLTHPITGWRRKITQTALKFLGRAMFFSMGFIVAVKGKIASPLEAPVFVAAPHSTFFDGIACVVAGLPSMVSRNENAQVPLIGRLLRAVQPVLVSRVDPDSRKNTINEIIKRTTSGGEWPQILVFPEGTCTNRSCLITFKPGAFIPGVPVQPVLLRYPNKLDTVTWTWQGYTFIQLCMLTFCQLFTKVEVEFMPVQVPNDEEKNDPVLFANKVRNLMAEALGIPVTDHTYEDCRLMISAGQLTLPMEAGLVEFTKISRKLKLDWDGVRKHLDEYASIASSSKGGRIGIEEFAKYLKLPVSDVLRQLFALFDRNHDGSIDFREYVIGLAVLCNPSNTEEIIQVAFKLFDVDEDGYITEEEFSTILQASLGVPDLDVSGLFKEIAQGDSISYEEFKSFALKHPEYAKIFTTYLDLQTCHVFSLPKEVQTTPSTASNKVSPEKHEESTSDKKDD
UniProt Q15345: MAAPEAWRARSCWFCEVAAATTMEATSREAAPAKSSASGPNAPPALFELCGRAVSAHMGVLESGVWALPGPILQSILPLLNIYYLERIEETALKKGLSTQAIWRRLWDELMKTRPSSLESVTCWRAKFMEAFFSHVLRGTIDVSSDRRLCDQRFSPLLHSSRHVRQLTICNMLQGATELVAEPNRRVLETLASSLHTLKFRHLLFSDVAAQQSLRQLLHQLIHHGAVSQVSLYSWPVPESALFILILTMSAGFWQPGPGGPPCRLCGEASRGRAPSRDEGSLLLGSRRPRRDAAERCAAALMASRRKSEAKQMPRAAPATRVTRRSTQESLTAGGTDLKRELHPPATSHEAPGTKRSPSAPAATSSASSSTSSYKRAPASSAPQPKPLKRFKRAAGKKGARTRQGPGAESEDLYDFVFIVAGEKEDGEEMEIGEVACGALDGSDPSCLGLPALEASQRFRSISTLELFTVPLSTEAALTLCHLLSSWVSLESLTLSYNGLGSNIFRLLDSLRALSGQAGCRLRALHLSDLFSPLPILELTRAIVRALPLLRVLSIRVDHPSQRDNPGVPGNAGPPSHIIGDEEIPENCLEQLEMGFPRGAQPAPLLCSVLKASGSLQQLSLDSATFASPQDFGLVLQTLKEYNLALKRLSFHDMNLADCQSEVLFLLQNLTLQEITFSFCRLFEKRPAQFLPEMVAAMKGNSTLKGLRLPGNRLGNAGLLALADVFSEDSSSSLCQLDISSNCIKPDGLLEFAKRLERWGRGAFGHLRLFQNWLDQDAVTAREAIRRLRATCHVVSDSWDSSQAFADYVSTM
UniProt Q96FQ7: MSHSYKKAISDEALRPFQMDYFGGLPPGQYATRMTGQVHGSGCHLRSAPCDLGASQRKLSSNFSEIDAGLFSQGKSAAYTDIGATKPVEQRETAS
UniProt Q6ZUX7: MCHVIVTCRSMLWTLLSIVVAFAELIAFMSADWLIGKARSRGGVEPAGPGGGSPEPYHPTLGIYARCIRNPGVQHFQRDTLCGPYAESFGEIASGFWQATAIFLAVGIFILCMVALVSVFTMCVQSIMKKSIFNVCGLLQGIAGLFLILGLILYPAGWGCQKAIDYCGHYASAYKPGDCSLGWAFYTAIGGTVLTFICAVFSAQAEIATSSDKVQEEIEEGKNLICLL
UniProt O75581: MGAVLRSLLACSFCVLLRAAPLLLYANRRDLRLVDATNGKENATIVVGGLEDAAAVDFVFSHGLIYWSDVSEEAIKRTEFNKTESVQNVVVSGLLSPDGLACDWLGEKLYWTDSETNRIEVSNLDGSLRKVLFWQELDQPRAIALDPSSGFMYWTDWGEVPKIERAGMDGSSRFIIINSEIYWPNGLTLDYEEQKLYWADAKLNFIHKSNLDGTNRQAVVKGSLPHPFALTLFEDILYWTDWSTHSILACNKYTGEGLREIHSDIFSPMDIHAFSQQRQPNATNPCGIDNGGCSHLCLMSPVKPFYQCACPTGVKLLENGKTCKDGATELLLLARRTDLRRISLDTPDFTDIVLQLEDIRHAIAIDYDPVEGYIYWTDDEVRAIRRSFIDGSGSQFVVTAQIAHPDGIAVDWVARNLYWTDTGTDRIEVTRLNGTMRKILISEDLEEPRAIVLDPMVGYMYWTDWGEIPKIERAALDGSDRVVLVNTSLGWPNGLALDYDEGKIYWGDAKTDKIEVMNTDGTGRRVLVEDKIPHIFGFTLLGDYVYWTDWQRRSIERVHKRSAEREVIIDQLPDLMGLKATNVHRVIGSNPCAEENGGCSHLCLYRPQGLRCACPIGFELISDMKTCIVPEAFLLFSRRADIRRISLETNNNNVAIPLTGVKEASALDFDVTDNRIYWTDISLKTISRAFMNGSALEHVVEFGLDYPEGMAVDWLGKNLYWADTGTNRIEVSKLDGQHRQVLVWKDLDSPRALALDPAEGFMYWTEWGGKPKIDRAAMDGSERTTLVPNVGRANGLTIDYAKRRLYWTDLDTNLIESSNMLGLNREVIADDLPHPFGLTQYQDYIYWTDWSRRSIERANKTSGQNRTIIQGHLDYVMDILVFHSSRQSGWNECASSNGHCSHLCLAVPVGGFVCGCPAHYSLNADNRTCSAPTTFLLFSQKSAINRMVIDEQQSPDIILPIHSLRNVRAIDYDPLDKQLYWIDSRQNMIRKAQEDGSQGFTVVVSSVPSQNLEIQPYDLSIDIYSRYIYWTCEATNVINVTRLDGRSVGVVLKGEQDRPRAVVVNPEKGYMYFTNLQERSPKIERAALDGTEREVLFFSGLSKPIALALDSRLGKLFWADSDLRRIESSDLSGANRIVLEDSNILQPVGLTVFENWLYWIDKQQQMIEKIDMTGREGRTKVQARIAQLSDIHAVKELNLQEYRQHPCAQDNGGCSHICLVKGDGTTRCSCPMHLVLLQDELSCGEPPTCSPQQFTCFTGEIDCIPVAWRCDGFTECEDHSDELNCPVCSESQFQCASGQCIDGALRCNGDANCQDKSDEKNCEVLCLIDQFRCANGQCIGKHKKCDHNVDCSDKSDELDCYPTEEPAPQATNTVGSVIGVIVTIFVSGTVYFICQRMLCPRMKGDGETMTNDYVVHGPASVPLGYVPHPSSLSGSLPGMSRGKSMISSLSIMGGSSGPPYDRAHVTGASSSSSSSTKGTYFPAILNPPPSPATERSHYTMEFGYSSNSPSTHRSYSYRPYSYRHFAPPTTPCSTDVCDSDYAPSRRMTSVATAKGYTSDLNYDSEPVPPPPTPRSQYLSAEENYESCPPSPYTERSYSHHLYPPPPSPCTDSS
UniProt O95214: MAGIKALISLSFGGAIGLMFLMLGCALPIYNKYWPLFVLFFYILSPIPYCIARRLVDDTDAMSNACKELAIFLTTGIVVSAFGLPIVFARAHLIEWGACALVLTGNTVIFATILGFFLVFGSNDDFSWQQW
UniProt P07864: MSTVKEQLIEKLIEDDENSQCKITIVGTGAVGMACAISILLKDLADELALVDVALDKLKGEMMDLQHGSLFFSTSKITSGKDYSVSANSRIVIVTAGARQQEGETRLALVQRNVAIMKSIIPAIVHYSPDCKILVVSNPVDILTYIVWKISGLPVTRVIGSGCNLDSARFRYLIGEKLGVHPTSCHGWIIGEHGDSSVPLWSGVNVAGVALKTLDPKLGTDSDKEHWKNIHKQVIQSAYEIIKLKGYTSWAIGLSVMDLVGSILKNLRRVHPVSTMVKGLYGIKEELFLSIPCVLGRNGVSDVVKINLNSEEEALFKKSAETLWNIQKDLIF
UniProt Q8N386: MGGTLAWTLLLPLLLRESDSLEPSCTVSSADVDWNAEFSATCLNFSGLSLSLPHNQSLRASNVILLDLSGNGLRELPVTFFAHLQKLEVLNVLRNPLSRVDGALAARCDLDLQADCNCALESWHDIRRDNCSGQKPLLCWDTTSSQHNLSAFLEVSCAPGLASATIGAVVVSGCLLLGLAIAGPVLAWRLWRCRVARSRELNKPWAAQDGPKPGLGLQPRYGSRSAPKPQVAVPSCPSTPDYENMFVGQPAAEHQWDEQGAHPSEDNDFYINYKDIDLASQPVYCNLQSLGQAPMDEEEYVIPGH
UniProt P23490: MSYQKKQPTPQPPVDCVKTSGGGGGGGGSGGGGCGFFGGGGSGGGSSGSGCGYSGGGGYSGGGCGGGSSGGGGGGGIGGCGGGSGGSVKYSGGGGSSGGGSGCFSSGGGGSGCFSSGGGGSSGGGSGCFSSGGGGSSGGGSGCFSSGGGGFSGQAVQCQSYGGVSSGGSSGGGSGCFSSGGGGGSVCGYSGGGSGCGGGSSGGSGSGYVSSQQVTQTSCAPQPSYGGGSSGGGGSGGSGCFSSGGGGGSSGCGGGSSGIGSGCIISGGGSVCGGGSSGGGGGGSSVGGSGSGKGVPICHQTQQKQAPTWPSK
UniProt Q9BQE6: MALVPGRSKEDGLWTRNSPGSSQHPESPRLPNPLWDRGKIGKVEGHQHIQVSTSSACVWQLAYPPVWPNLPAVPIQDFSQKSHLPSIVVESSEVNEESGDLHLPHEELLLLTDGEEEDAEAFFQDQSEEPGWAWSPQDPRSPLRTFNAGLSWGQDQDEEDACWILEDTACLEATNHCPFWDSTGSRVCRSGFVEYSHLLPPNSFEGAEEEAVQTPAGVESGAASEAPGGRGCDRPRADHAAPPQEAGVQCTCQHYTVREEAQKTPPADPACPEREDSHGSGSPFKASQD
UniProt A6NK58: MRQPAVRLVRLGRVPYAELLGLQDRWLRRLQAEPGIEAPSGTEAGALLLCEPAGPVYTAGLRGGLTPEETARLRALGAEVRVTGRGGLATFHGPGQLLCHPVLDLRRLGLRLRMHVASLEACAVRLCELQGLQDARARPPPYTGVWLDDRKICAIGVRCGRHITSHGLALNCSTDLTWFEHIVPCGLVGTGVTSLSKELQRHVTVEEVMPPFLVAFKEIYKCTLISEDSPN
UniProt Q9P244: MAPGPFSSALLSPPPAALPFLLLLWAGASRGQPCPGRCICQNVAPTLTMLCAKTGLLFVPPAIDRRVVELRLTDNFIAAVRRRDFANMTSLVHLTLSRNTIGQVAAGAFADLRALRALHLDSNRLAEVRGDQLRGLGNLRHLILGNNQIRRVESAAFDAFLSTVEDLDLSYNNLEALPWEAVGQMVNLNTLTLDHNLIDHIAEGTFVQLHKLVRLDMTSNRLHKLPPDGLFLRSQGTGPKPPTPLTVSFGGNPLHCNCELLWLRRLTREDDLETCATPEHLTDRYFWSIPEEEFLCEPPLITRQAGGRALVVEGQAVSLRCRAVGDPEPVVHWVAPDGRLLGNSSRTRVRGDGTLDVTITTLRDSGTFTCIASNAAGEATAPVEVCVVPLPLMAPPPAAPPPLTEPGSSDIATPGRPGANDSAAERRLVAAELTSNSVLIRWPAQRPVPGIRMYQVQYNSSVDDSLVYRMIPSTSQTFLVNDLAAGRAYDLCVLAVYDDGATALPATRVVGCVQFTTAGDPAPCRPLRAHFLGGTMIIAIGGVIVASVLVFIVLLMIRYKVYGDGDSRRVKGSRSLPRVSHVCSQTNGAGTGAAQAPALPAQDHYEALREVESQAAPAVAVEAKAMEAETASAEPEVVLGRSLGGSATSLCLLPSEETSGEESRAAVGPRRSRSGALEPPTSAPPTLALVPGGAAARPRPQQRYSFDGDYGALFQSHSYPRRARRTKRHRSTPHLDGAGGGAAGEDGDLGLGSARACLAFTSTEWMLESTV

Columns and labels:
Assay in all cases: log2 fold change, soluble protein after heating vs DMSO (PISA); higher = thermal stabilisation; K562 lysate, 10 uM; active = over 0.2 and 3.5 SD of the protein, either way, in both replicates (recomputed)
[1] = compound: CN1CC[C@H](c2c(O)cc(O)c3c(=O)cc(-c4ccccc4Cl)oc23)[C@H](O)C1 [alvocidib]
Method in brief: (§1)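 Dounce homogenisation of K562 pellets in PBS pH 7.4 with 1 mM MgCl2 produced a crude extract, used at 1 mg/mL protein. Exposure to 10 μM compound lasted 30 min, and aliquots were then heated for 3 min across 48°C-58°C, pooled and brought to 0.5% NP-40 at 4°C. The supernatant after 21,000xg for 90 min was quantified by TMTpro 16plex LC-MS/MS with channel sums equalised. Duplicate values are given as log-two fold change in thermal stability relative to solvent controls.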

[2] = compound: CNC(=O)C1=CC=CC=C1NC2=NC(=NC=C2Cl)NC3=C(C=C(C=C3)N4CCOCC4)OC
Method in brief: as §1

[3] = compound: COC(=O)N[C@@H](C)CNc1nccc(-c2cn(C(C)C)nc2-c2cc(Cl)cc(NS(C)(=O)=O)c2F)n1 [encorafenib]
Method in brief: as §1

[4] = compound: COC(=O)[C@H](CCSC)NC(=O)C1=C(C=C(C=C1)NC[C@H](CS)N)C2=CC=CC=C2
Method in brief: as §1

[5] = compound: CS(=O)(=O)N1CCN(Cc2cc3nc(-c4cccc5[nH]ncc45)nc(N4CCOCC4)c3s2)CC1 [pictilisib]
Method in brief: as §1

[6] = compound: C[C@@H](Oc1cc(-c2cnn(C3CCNCC3)c2)cnc1N)c1c(Cl)ccc(F)c1Cl [crizotinib]
Method in brief: as §1

[7] = compound: C[C@H](C1=CC=C(C=C1)C(=O)NC2=C3C=CNC3=NC=C2)N
Method in brief: as §1

[8] = compound: Cc1cc(Nc2cc(CN3CCOCC3)c3nc(C)c(Cc4ccc(Cl)cc4F)n3n2)n[nH]1 [gandotinib]
Method in brief: as §1

[9] = compound: Cc1cc(Nc2cc(N3CCN(C)CC3)nc(Sc3ccc(NC(=O)C4CC4)cc3)n2)n[nH]1 [tozasertib]
Method in brief: as §1

[10] = compound: Cc1ccc(-n2nc(C(C)(C)C)cc2NC(=O)Nc2ccc(OCCN3CCOCC3)c3ccccc23)cc1 [doramapimod]
Method in brief: as §1

[11] = compound: Cc1ccc(NC(=O)c2ccc(CN3CC[C@H](N(C)C)C3)c(C(F)(F)F)c2)cc1Nc1nccc(-c2cncnc2)n1 [bafetinib]
Method in brief: as §1

[12] = compound: Cc1cccc(CC(=O)N2CCc3c2ccc(-c2cn(C)c4ncnc(N)c24)c3F)n1
Method in brief: as §1

[13] = compound: COc1cc2nc(-c3cc(F)ccc3O)nc(N[C@@H]3CNC[C@H]3C(C)(C)O)c2cc1OC
Method in brief: as §1

[14] = compound: CS(=O)(=O)CCNCc1ccc(-c2ccc3ncnc(Nc4ccc(OCc5cccc(F)c5)c(Cl)c4)c3c2)o1 [lapatinib]
Method in brief: as §1

[15] = compound: CN1CCc2c(c3ccccc3n2Cc2ccc(C(=O)NO)cc2)C1 [Tubastatin A]
Method in brief: as §1

[16] = compound: CNc1nc(-c2ccc3c(N)n[nH]c3c2)cc(N2C[C@@H](C(=O)NC3CCCCC3)CC[C@H]2C)n1
Method in brief: as §1

[17] = compound: C[C@H](Nc1ncnc2nc[nH]c12)c1cc2cccc(Cl)c2c(=O)n1-c1ccccc1 [duvelisib]
Method in brief: as §1

[18] = compound: CNC(=O)c1ccc(Nc2ncc(C(F)(F)F)c(NCc3nccnc3N(C)S(C)(=O)=O)n2)cc1 [defactinib]
Method in brief: as §1

[19] = compound: COc1cc(Nc2ncc3c(n2)-c2ccc(Cl)cc2C(c2c(F)cccc2OC)=NC3)ccc1C(=O)O [alisertib]
Method in brief: as §1

[20] = compound: COc1cc2ncnc(Nc3ccc(F)c(Cl)c3)c2cc1OCCCN1CCOCC1 [gefitinib]
Method in brief: as §1

Measured: log2 fold change

LRG1 (UniProt P02750)
inactive: [1] -0.051 | [2] -0.392 | [3] 0.105 | [4] 0.038 | [5] -0.173 | [6] -0.105 | [7] -0.002 | [8] 0.065 | [9] -0.02 | [10] 0.04 | [11] 0.082 | [12] 0.054

LDHA isoform 4 (UniProt P00338)
inactive: [1] -0.111 | [13] 0.025 | [14] -0.325 | [7] -0.4 | [8] 0.021 | [12] 0.135

LIN52 (UniProt Q52LA3)
inactive: [15] 0.048 | [2] -0.015 | [16] -0.098 | [13] 0.05 | [14] 0.255 | [6] 0.089 | [17] 0.021 | [10] 0.082

LITAF (UniProt Q99732)
inactive: [15] 0.039 | [2] 0.024 | [16] -0.144 | [3] -0.006 | [4] -0.216 | [13] -0.017 | [14] -0.002 | [6] -0.023 | [17] 0.018 | [9] -0.018 | [10] -0.009

LPCAT2 (UniProt Q7L5N7)
inactive: [18] -0.088 | [16] -0.11 | [3] -0.008 | [4] 0.063 | [19] -0.302 | [20] 0.075 | [5] -0.046 | [6] 0.419 | [17] -0.031 | [9] 0.1 | [10] -0.011 | [11] -0.144

LRRC41 (UniProt Q15345)
inactive: [15] -0.02 | [2] -0.058 | [18] 0.089 | [16] 0.033 | [3] 0.024 | [4] -0.059 | [19] -0.18 | [13] -0.005 | [20] 0.035 | [14] 0.017 | [5] 0.002 | [6] 0.067 | [17] 0.107 | [9] -0.013 | [10] -0.003 | [11] -0.027

LINC00526 (UniProt Q96FQ7)
inactive: [6] 0 | [10] 0.008

LRP1 (UniProt Q07954)
inactive: [18] -0.108 | [3] -0.091 | [4] 0.043 | [13] 0.034 | [14] -0.047 | [6] -0.488 | [9] 0.239 | [10] 0.022

LHFPL2 (UniProt Q6ZUX7)
inactive: [5] -0.148 | [6] -0.068 | [10] -0.064 | [11] -0.094

LRPPRC (UniProt H7C3W8)
inactive: [18] -0.063

LRP6 (UniProt O75581)
inactive: [15] 0.122 | [2] -0.022 | [16] 0.005 | [3] -0.309 | [4] 0.049 | [5] 0.104 | [6] 0.033 | [17] 0.052 | [9] -0.114 | [10] -0.058 | [11] 0.05

LRP5 (UniProt O75197)
inactive: [2] 0.042 | [16] -0.101 | [3] -0.025 | [4] 0.014 | [17] -0.04 | [9] -0.083

LEPROTL1 isoform 2 (UniProt O95214)
inactive: [15] -0.363 | [2] 0.029 | [18] 0.127 | [16] -0.246 | [13] -0.139 | [14] -0.15 | [5] 0.003 | [17] -0.19 | [11] -0.118

LDHC (UniProt P07864)
inactive: [15] 0.085 | [2] 0.115 | [18] 0.02 | [16] 0.054 | [3] -0.009 | [4] -0.028 | [19] 0.018 | [13] 0.025 | [20] -0.195 | [14] -0.032 | [5] -0.039 | [17] -0.007 | [9] -0.046 | [11] 0.12

LRRC8C (UniProt E9PHY6)
inactive: [2] -0.143 | [18] -0.108 | [19] 0.089 | [20] 0.165

2 entries picked at random from those above, as already listed:
LRP5 (UniProt O75197)
inactive: [2] 0.042 | [16] -0.101 | [3] -0.025 | [4] 0.014 | [17] -0.04 | [9] -0.083

LRG1 (UniProt P02750)
inactive: [1] -0.051 | [2] -0.392 | [3] 0.105 | [4] 0.038 | [5] -0.173 | [6] -0.105 | [7] -0.002 | [8] 0.065 | [9] -0.02 | [10] 0.04 | [11] 0.082 | [12] 0.054

Next part:

LRRC25 (UniProt Q8N386)
inactive: [3] 0.002 | [4] -0.066 | [13] -0.067 | [14] -0.123 | [6] -0.127 | [9] 0.051 | [10] 0.112

LOR (UniProt P23490)
inactive: [5] 0.445 | [11] 0.16

LBHD1 (UniProt Q9BQE6)
inactive: [6] -0.006 | [10] -0.112

LIPT2 (UniProt A6NK58)
inactive: [3] 0.004 | [4] -0.129 | [13] -0.002 | [14] 0 | [5] -0.258 | [9] 0.003 | [11] -0.287

LRFN1 (UniProt Q9P244)
inactive: [15] 0.055 | [2] -0.373 | [18] 0.072 | [16] -0.162 | [3] 0.073 | [4] -0.048 | [19] 0.035 | [13] 0.057 | [20] -0.134 | [14] 0.048 | [5] -0.242 | [6] -0.023 | [17] 0.027 | [9] -0.124 | [10] 0.062 | [11] 0
